Test results published in the supplement of paper PMC3334620.
Whole data set: some 33,000 sequences, median “E-score (-0.5 to 0.5)” near -0.0014, cut for the highest 2% near 0.25. The list shows a part of the results.

The sequences below were run against T1, Cad1 (UniProt P24813) (assay: PBM E-score (8-mer binding enrichment) (E-score (-0.5 to 0.5)); higher = stronger / more preferred TF binding). Settings: protein concentration: 100 nM; construct: GST-full length.
T1 sequence: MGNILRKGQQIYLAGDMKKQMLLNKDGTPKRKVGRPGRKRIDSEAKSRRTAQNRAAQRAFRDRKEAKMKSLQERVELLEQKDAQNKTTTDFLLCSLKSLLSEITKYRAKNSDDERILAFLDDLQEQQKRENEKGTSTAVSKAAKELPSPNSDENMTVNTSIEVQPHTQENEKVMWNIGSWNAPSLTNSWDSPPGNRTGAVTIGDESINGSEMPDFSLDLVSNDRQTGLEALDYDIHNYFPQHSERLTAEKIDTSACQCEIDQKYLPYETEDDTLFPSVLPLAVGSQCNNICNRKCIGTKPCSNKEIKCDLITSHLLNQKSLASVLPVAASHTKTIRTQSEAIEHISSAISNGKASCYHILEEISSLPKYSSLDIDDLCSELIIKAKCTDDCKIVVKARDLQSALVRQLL
In short: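 E-scores (a modified Wilcoxon-Mann-Whitney statistic) were assigned by the Universal PBM Analysis Suite to every ungapped eight-base word pooled with its reverse complement. The input came from universal all-10-mer Agilent arrays made double-stranded by primer extension and probed with GST-tagged yeast transcription factors at about 100-200 nM. Fluorescent anti-GST detected bound protein, and masliner normalised the scans.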

Sequence | PBM E-score
AATTAAGG | 0.0253
CATTCGAG | 0.0511
CGTGCAGA | 0.0434
CCGTGTGA | -0.0277
AGCCAAAG | -0.123
ATTCGGAC | 0.182
GGCACCAA | 0.129
GATGTAGA | -0.158
GGTCTACA | -0.0752
AAAGCTCG | -0.00679
GTAAATGA | 0.0571
ACTAATAT | 0.302
AACGCAAC | 0.0831
ATCGGTCG | 0.12
CGGGACAA | 0.0675
AATTACAT | 0.354
GGTCACTA | 0.023
ATTTGAGG | -0.206
GTTGGTGA | 0.146
ACATGAAA | -0.0596
CATATGGC | 0.0661
CAGATGGC | 0.0196
ATAGCTAG | -0.106
CGAGAGGA | -0.0632
GTCAAGGA | -0.0151

5 entries picked at random from those above, as already listed:
Sequence | PBM E-score
AAAGCTCG | -0.00679
ACATGAAA | -0.0596
GTTGGTGA | 0.146
CGAGAGGA | -0.0632
GTCAAGGA | -0.0151

Later entries

Sequence | PBM E-score
GCTAACCC | -0.0945
CCCAGCAA | -0.0856
AGTTGACC | 0.0224
CCAGAGAC | -0.012
GATTTCTA | 0.123
CATTGCAG | 0.0842
CGACGGTA | 0.217
AATGCGCT | 0.0389
ACGAATGG | 0.0157
CAACGCTA | 0.00025
CTTTGGGC | -0.224
CGCAACCA | 0.0618
ATTCGGTA | 0.185
GACTCATC | -0.00764
CAGGTGCC | -0.0801
ACGCACGG | 0.0876
ACTGAGCA | -0.057
AAAGAAGT | 0.171
CAACTTGA | 0.223
ATGGGGGA | -0.385
GTCGATAA | -0.0981
AGATGGAC | 0.0292
TAGGTGCA | -0.112
ACACAGCT | 0.0403
CCAACAAA | -0.00011

Sequence | PBM E-score
TCATCACA | 0.123
AACGAATT | 0.149
GAAGATTA | 0.181
AAACCTAA | 0.0126
GAAGAACA | 0.121
ACAGGAAG | -0.142
ATATAACC | -0.0304
GCCGCACA | -0.13
AAACCTAG | -0.0612
GCAGCCCA | -0.163
CCCTTTGA | -0.154
ATGCAAGG | -0.248
AGTTTGGA | 0.08
AAAATATA | 0.208
GCCAGGAC | -0.0142
GGAAGAAA | -0.0518
AAGAAGGG | -0.144
TAGGGACA | -0.0126
AAAGCAAA | 0.16
CACCCATC | -0.0935
GACCGTGA | -0.0336
CTGTGGCC | -0.325
AGCTGTTC | -0.0751
AAACAGGT | -0.0926
CAATTAAG | 0.0377

Sequence | PBM E-score
AGCTACCA | 0.0307
GAGCCAAA | -0.131
TCAACTCA | 0.0746
AATCAGGT | 0.18
AATCTCCC | -0.277
AAGTTCAA | 0.146
GATTTGCC | 0.0432
CTATAAAG | -0.149
AAAGTTGG | -0.00742
AGCGTAAC | 0.0717
GACGAGTC | -0.157
CCGTTACG | -0.0396
CTTTCCCA | -0.124
ACGCTCTA | -0.242
CGCTGCGA | 0.14
TAATGATA | 0.251
GGTGCCAC | -0.0568
AAAATGAT | 0.234
AGCGCAAG | 0.1
CTCCGTCA | 0.00089
AGTGGGTC | -0.248
ACGTAACG | 0.0481
CTAAGTAA | 0.0983
AGGTTGCC | -0.143
AATCTGCT | 0.0612

Sequence | PBM E-score
AGGCACCT | -0.2
CCTGGCCC | -0.0403
CTCAATCA | 0.0838
AGCGTGCG | 0.108
CCATATAA | -0.0968
GAAGAGAC | -0.0449
AACAGCTA | -0.0873
CACAACCC | -0.0563
AATACGAA | 0.18
GTAGAAGA | -0.128
CATTTAGC | -0.143
CCGCCCTA | -0.00222
CACCGGGA | -0.192
AGTATACT | -0.0247
ATTAGAAA | 0.173
CACATAAG | 0.00562
GCAAAGGC | -0.222
GGAAGACC | -0.227
AACTGATT | -0.067
ACGCCGAT | 0.132
AGCCAACT | -0.117
GAGCGTAA | 0.0355
GCTTACCC | 0.034
ATATTTCG | 0.206
AAGTATGC | -0.0509

Sequence | PBM E-score
TCACTCAA | -0.00031
AAACGGGC | 0.0994
ATGCCGTC | -0.0686
GCTTAATA | 0.212
CATTCGAA | 0.0318
ATGGTCTG | 0.00029
GATGGGAC | 0.00072
GATGTAAC | -0.0181
ATTCGTTG | 0.258
AATTTGTC | 0.31
ATGCTCTA | -0.182
TATAAGAA | 0.0437
CGGGTGAG | -0.222
TCCGACAA | 0.0363
CCTGCCAC | -0.0993
TCAAAACA | 0.0475
CTTTTCGC | 0.21
ACTAGATG | 0.00154
CGGTGTCA | -0.106
GAATGAAA | 0.138
CTTATAAG | -0.047
ACCCGCTG | -0.0566
CCCCGGCG | -0.272
AACGGGTG | -0.023
CTCCGACC | -0.157

Sequence | PBM E-score
AACACTCC | -0.0547
AAAGCTCC | -0.101
ATCCGCAA | -0.0492
CTCTTGCC | -0.062
AACGTAGA | 0.0503
CAACTCCG | -0.113
AGCTAAGC | 0.0297
ATCAATCG | 0.136
AGGCACCC | -0.259
CCGGGCAC | -0.153
CAGCAACA | 0.186
CGATGGTC | -0.108
CATAATGA | 0.0454
GGGCCCGA | 0.0194
ATTCGGAG | -0.0536
CCTTGTAG | -0.177
ATCGACTG | 0.00902
TATTTACA | 0.111
CTCCCCCC | -0.406
AGCTCTTC | -0.0278
GAAGTCAC | -0.175
CTCTCAAG | 0.0798

A section taken from the entries so far, as a working copy:
Sequence | PBM E-score
CGCAACCA | 0.0618
ATTCGGTA | 0.185
GACTCATC | -0.00764
